The values are deposited in ChEMBL (CHEMBL3988442, “University of Dundee, Small-Polar-MMV Screening Library” (2021)).

The filed quantity is “Percent Effect” (%). How 0% and 100% were set is not recorded. Most values in the screen are low, and negative values occur. This is an unselected part of the compounds tested. Two or more numbers in one place are separate tests of the same structure; such repeats can differ widely.

A: 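Cell assay of Leishmania donovani living inside macrophages; the read-out is not stated. Compounds at 30 µM. Higher reads as stronger inhibition (inferred: compounds with an IC50 in retests scored well above the rest). About 69,000 compounds were tested under these conditions; 1.5% (about 1,000) showed 50% or more at least once.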
B: 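Assay of Toxoplasma gondii numbers, read through their beta-galactosidase reporter with a colour substrate. Tested at 10 µM. Higher reads as fewer parasites (inferred from which compounds were picked for retests). Size under these conditions: about 67,000 compounds, about 260 of them at 50% or above in at least one test.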

SMILES	A	B
CCc1nc(C)c(C(=O)NCCN2CCN(C(C)=O)CC2)s1	4.487	-0.7786
Cn1cnnc1CCNC(=O)c1cnn(Cc2ccccc2)c1	0.2587	-3.486
CC(O)CN1CCN(CCOCC(F)(F)F)CC1 (stereo not drawn)	14.9	2.347
COc1cccc2c1OCCCN(Cc1ncccc1C(=O)O)C2	-9.577	3.092
CS(=O)(=O)c1nccn1Cc1ccc(C(N)=O)cc1	8.526	-4.567
Cc1nc(CCN(C)C(=O)CN2C(=O)OC[C@@H]2c2ccccc2)no1	-0.1381	-3.759
NC(=O)c1cnn2c1NCC(CNCCc1cccs1)C2 (stereo not drawn)	23.34	-2.876
Cn1ccnc1C1(O)CCCN(Cc2ccncc2)CC1 (stereo not drawn)	1.196	-6.951
CC(=O)N1CC2(CCN(Cc3ccc(Cl)cc3)CC2)Cc2ccccc21	-22.86	17.06
CCc1n[nH]c(C2CN(Cc3nnc(C4CC4)o3)CCO2)n1 (stereo not drawn)	31.86	8.595
CC(Cn1cncn1)NC(=O)NCC(C)(C)c1ccc(F)cc1 (stereo not drawn)	-3.765	2.544
Cc1c(Cl)cccc1OCC(=O)NC1(C#N)CCSC1 (stereo not drawn)	11.23	0.9831
COCCO[C@H]1CCN(c2cc(OC)ncn2)[C@H]1Cc1cnn(C)c1	23.97	2.873
Nc1nc2c(c(N3CCC(CN4CCCC4=O)CC3)n1)CCNCC2	6.699	21.4
Cc1ccccc1CNC(=O)Cn1ncc2c1c(C)nn2C	-56.14	2.492
CCC(=O)N1CCOC(c2cc(Nc3nncs3)cc(C)n2)C1 (stereo not drawn)	-18.06	4.131
Cc1nc(CN2CCN(c3ccc(SC(C)C)nn3)CC2)cs1	-17.58	-0.911
CCc1c(C)n(C)c2nc3ccccc3n2c1=O	-1.309	2.995
CC1CN(Cc2ccccc2Cn2cccn2)CCN1C (stereo not drawn)	-0.7989	3.263
COc1cc(F)c(S(=O)(=O)N2CCN(C)Cc3ccccc32)cc1OC	11.3	0.8021
O=C(NCC1(CO)CC1)NC(c1nccs1)C1CC1 (stereo not drawn)	16.52	6.212
Cc1nc(CN2CCN(C(C)C(=O)NC3CCCC3)CC2)cs1 (stereo not drawn)	20.36	-3.895
Cc1cc(CS(=O)(=O)c2ccccc2)no1	16.03	-1.551
CC(C)c1cc(NCC(O)c2ccc(F)cc2)n2nccc2n1 (stereo not drawn)	16.47	-3.116
COc1ccc(CN(C)CC(O)COCc2ccccc2Cl)c(OC)c1.O=C(O)C(=O)O (stereo not drawn)	38.28 and 37.13	0.1391
CCN(Cc1ccc(-c2ccccn2)cc1)C1CCS(=O)(=O)C1 (stereo not drawn)	-0.3189	-6.901
O=C(NCCC1=CCCCC1)c1ccc(-n2cccc2)nc1	-11.74	14.06
Cc1cc(-c2cnc(N3CCCC(C)C3)nc2-c2cccnc2C)on1.Cl (stereo not drawn)	-8.908	3.395
Cn1c(C(N)=O)cc2c1CN(C(=O)C1CC(=O)N(C(C)(C)C)C1)CC2 (stereo not drawn)	-7.825	-4.877
O=C(c1ccc2c(c1)CCC2)N1CCC(c2n[nH]c(C3CC3)n2)CC1	15.67	19.8
CCc1nc(C2CCCN(C(=O)CN(C)S(C)(=O)=O)C2)no1 (stereo not drawn)	5.474	-2.894
CC(C)(C)C(=O)NCCn1ccc(-c2ccccn2)n1	-6.806	-0.1172
Cc1cc(-c2ccc(=O)n(CCNC(=O)C3CC3)n2)c(C)o1	33.07	-5.306
CC(=O)N1CCCC(c2nc(N(C)C)ncc2-c2ccccc2)C1 (stereo not drawn)	19.2	-13.25
CC(C)(C)NC(=O)CN1CCNCC1.Cl.Cl	11.16	-1.172
Cc1occc1C(=O)N1CCC2(CCCN(Cc3cccs3)C2)C1.O=C(O)C(F)(F)F (stereo not drawn)	2.516	4.521
Cn1cc(CN2CCC(c3ccncc3)CC2)cn1	37.79	-13.57
CCCN1CC2(CCN(C)CC2)CC1C(=O)NCc1cc(C)nn1C (stereo not drawn)	18.7	-4.299
O=c1c2ccccc2nc2n1C(CSc1ccc(Cl)cc1)CN2 (stereo not drawn)	13.66	-8.138
NC(=O)c1cnn2c1NCC(CNCCOc1ccccc1)C2 (stereo not drawn)	19.19	-9.709
Cc1nc(CN2CCC3(CCCN(Cc4ccoc4)C3)C2=O)cs1.O=C(O)C(F)(F)F.O=C(O)C(F)(F)F (stereo not drawn)	15.73	13.7
O=C(Nc1cccnc1)c1nn(C2CCS(=O)(=O)C2)c2c1CCCC2 (stereo not drawn)	10.87	-17.48
CCN(CC)C1CCN(C(=O)NCc2cccc(-n3ccnc3)c2)C1 (stereo not drawn)	23.85	5.309
CCOc1c(Cl)cc(Cl)cc1CNCCCn1ccnc1	67.73	-3.699
O=S(=O)(c1ccc(Cl)cc1)N1CCC(OCc2ccccn2)C1 (stereo not drawn)	10.77	-0.4566
CCn1c(C2CCCN(Cc3ccc(F)cc3Cl)C2)nn(C)c1=O (stereo not drawn)	3.394	-5.855
CC(C)CCC(=O)N1CCN(c2ncnc3nc(N)ccc23)CC1	27.01	1.58
c1ccc(CN2CCC(Nc3ncnc4c3CCNCC4)C2)cc1 (stereo not drawn)	21.41	24.99
Cc1ccc2c(ccn2CCC(=O)N2CCC(C(N)=O)CC2)c1	11.15	-4.065

3 of the entries, repeated:

SMILES	A	B
Cc1c(Cl)cccc1OCC(=O)NC1(C#N)CCSC1 (stereo not drawn)	11.23	0.9831
Cc1nc(CN2CCN(c3ccc(SC(C)C)nn3)CC2)cs1	-17.58	-0.911
O=C(NCC1(CO)CC1)NC(c1nccs1)C1CC1 (stereo not drawn)	16.52	6.212